Source: the supplement of paper PMC12819154, “High-throughput peptide-centric local stability assay extends protein–ligand identification to membrane proteins, tissues and bacteria” (Nature Structural & Molecular Biology, 2025)
The list shows a part of the results. Most values lie at the level of the controls, where differences are scatter.

By UniProt entry, the sequences of proteins in these tests, tags left out. Where a name states a change or a piece, a line headed by the entry shows the natural chain unless it says otherwise.
UniProt P31725: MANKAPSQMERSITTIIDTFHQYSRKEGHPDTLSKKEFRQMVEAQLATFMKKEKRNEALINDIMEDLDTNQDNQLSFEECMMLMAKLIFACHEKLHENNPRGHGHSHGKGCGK
UniProt P23492: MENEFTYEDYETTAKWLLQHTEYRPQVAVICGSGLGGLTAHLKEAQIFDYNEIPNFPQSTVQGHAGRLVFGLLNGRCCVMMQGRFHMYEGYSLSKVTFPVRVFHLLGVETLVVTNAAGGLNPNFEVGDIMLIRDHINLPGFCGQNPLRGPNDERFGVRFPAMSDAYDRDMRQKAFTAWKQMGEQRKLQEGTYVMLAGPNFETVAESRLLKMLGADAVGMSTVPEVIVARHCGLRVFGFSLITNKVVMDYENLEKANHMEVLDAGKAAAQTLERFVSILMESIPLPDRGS
UniProt P23475: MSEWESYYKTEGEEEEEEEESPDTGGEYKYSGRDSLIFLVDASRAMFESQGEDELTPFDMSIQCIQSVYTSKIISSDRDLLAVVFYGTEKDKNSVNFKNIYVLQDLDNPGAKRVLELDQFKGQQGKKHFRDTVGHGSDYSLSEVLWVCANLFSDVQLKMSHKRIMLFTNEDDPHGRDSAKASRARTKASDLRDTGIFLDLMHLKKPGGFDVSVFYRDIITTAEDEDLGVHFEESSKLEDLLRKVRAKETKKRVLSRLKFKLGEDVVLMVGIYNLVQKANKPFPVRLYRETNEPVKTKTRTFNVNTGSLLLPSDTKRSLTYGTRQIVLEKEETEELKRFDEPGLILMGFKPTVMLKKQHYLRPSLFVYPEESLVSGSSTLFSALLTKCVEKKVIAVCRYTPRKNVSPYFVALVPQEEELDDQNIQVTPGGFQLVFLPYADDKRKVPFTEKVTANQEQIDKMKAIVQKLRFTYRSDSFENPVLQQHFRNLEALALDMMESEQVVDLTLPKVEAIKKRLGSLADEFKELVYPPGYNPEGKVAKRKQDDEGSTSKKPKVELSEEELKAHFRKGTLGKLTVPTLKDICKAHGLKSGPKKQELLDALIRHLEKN
UniProt P30545, whole entry: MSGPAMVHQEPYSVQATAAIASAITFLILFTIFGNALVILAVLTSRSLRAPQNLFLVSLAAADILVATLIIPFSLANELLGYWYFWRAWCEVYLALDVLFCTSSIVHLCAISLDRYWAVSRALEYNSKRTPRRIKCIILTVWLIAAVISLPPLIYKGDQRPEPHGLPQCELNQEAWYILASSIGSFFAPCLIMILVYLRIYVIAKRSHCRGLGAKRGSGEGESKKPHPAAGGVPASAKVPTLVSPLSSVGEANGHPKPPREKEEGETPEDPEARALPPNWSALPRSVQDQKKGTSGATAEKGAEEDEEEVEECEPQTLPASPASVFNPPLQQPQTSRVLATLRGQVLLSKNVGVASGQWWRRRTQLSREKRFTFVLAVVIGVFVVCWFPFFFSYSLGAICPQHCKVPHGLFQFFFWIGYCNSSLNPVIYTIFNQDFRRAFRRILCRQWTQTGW
UniProt P29788: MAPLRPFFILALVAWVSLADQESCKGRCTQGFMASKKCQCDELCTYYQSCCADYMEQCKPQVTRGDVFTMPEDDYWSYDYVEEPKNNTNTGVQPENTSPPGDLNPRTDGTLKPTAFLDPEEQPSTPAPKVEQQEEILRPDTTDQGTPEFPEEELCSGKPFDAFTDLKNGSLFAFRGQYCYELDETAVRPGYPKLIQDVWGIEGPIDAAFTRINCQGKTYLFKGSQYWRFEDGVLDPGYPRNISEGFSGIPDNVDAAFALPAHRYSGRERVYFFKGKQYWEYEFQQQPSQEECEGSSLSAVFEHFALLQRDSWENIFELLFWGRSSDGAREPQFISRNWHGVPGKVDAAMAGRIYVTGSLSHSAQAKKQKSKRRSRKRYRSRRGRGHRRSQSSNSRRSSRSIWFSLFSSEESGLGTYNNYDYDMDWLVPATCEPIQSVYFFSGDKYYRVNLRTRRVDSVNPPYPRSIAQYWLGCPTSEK
UniProt P20491: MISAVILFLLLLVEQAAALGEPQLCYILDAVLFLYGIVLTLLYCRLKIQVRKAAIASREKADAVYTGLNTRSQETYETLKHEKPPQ
UniProt P18828: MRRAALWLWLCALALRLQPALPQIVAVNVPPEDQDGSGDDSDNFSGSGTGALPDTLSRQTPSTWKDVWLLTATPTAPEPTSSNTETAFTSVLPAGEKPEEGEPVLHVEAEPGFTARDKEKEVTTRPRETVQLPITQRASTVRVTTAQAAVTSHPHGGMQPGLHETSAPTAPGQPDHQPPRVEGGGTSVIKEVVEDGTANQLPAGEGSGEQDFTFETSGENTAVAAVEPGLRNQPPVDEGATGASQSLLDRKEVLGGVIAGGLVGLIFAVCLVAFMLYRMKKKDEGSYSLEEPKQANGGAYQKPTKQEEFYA
UniProt P19001: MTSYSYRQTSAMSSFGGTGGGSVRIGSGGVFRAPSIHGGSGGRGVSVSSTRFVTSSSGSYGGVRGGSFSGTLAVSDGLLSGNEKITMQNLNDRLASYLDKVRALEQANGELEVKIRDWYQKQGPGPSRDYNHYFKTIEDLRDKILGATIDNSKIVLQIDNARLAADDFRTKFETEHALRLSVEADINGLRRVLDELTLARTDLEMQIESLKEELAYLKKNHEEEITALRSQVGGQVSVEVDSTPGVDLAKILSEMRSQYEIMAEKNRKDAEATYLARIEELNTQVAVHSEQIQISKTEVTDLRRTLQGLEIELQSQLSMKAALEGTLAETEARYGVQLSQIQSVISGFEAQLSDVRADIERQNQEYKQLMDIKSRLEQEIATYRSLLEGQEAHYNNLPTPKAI

compound: CN[C@@H]1C[C@H]2O[C@@](C)([C@@H]1OC)n1c3ccccc3c3c4c(c5c6ccccc6n2c5c31)C(=O)NC4 [staurosporine]; assay: log2 fold change of tryptic peptide abundance, ligand vs vehicle (limited proteolysis) (log2 ratio); higher = more trypsin-susceptible (destabilized); settings: ligand concentration: 20 uM; sample: mouse liver crude lysate; replicate design: treated separately

Row | Target | log2 fold change
1 | UniProt P31725 (peptide sequence: SITTIIDTFHQYSR, peptide start residue: 12) | 0.127
2 | UniProt P23492 (peptide sequence: FPAMSDAYDRDMR, peptide start residue: 159) | -0.234
3 | UniProt P23475 (peptide sequence: IMLFTNEDDPHGRDSAK, peptide start residue: 164) | 0.547
4 | UniProt P30545 (peptide sequence: EKEEGETPEDPEAR, peptide start residue: 261) | -0.327
5 | UniProt P29788 (peptide sequence: EPQFISR, peptide start residue: 330) | -0.163
6 | UniProt P20491 (peptide sequence: SQETYETLK, peptide start residue: 72) | -0.059
7 | UniProt P18828 (peptide sequence: VEGGGTSVIK, peptide start residue: 181) | 0.136
8 | UniProt P19001 (peptide sequence: SQYEIMAEK, peptide start residue: 257) | -0.164
